At least one structure is not confirmed: it was looked up by name or label, or the drawing left a doubt. Marks after values point to notes of the source that are not given here.
Assays:
[1] = test system: GnRH secretion by hypothalamic explants; experiment: In vitro GnRH secretion by hypothalamic explants induced by veratridine (static incubation, GnRH radioimmunoassay); format: cell-based, rat
Method: The hypothalamic explants of male Wistar rats were studied individually using a static incubation system described earlier (1-3, 9). The total incubation volume of each chamber (0.5 ml) was sampled and renewed every 7.5 min. Using these fractions, the radioimmunoassay of GnRH was performed as described in detail previously (1, 2). The secretion of GnRH was studied either in the absence of any secretagogue or during the 7.5-min exposure to 5.10^−5 M of veratridine, a depolarizing agent opening the Na^+ channel, or 5.10^−2 M of kainate or N-methyl-D, L-aspartate (NMA) which are agonists of distinct subtypes of glutamate receptors. All these products were bought from Sigma, St Louis, Mo. […] The secretory response of GnRH was calculated as the difference between the concentration measured immediately before and during exposure to the secretagogue.
We studied the effects of the in-vitro exposure to increasing concentrations of recombinant hIGF-I (Kabi-Pharmacia, Stockholm, Sweden) or its two subproducts, (1-3)IGF-I (Peninsula, Merseyside, England) and (4-70)IGF-I (Gropep, Adelaide, Australia). […] At that time, the serum was collected for the assay of IGF-I using a method described elsewhere (15) and testosterone was measured as well using a standard RIA (Sorin Biomedica). […] The occurrence of significant GnRH secretory pulses was determined using the pulsar program (2, 3). […]

kainate receptors = experiment: In vitro GnRH secretion by hypothalamic explants induced by kainate; format: cell-based, rat; settings: for GnRH secretion induced by kainate 5.10^−2 M: 50-day-old male rats, mean, n = 6
Method: (§1) The hypothalamic explants of male Wistar rats were studied individually using a static incubation system described earlier (1-3, 9). The total incubation volume of each chamber (0.5 ml) was sampled and renewed every 7.5 min. Using these fractions, the radioimmunoassay of GnRH was performed as described in detail previously (1, 2). The secretion of GnRH was studied either in the absence of any secretagogue or during the 7.5-min exposure to 5.10^−5 M of veratridine, a depolarizing agent opening the Na^+ channel, or 5.10^−2 M of kainate or N-methyl-D, L-aspartate (NMA) which are agonists of distinct subtypes of glutamate receptors. All these products were bought from Sigma, St Louis, Mo. At 25 and 50 days, veratridine was used repeatedly at 37.5-min intervals. At 15 days, veratridine was used at 52.5-min intervals, i.e. beyond the period of refractoriness caused by the inhibitory autofeedback of GnRH(11). The secretory response of GnRH was calculated as the difference between the concentration measured immediately before and during exposure to the secretagogue.
We studied the effects of the in-vitro exposure to increasing concentrations of recombinant hIGF-I (Kabi-Pharmacia, Stockholm, Sweden) or its two subproducts, (1-3)IGF-I (Peninsula, Merseyside, England) and (4-70)IGF-I (Gropep, Adelaide, Australia). We also studied the effects of other peptides. The GnRH fragments and analogs included (1-5) GnRH (UCB, Brussels, Belgium), (2-10)GnRH (Sigma, St Louis, Mo., USA) and (1-9)GnRHa (D-TRP^6-PRO^9-N-Ethylamide GnRH) a GnRH agonist kindly provided by Dr J Rivier (The Salk Institute, California, USA). The bovine Proinsulin and its subproducts included the C-peptide of insulin and insulin itself (Novo-Nordisk, Copenhagen, Denmark). Finally, the GRF-related peptides included (1-43) rat GRP (Bachem, Bubendorf, Switzerland), (1-37) human GRF (Peninsula, Merseyside, England) and (1-29)human GRF (Kabi Pharmacia, Stockholm, Sweden). AP-5 (DL-2-amino-5-phosphonovaleric acid, Sigma), a selective antagonist at NMDA receptors and DNQX (6,7-dinitro-quinoxaline-2,3-dione, Tocris Neuramin, Buckhurst Hill, United Kingdom) a selective antagonist at kainate receptors, were also used. The different peptides or antagonists were used for 15 min, i.e. the 7.5-min fraction before and during exposure to veratridine. We also studied the effects of a single s.c. injection of IGF-I or its subproducts in 15 or 50 day-old rats. […] At that time, the serum was collected for the assay of IGF-I using a method described elsewhere (15) and testosterone was measured as well using a standard RIA (Sorin Biomedica). […] The occurrence of significant GnRH secretory pulses was determined using the pulsar program (2, 3). […]

[2] = test system: different subtypes of glutamate receptors including NMDA and kainate receptors; experiment: Patch-clamp studies of hippocampal neurons; format: cell-based; settings: preliminary data
NMDA receptors = experiment: In vitro GnRH secretion by hypothalamic explants induced by NMA; format: cell-based, rat; settings: for GnRH secretion induced by NMA 5.10^−2 M: 50-day-old male rats, mean, n = 6
Method: as §1
We studied the effects of the in-vitro exposure to increasing concentrations of recombinant hIGF-I (Kabi-Pharmacia, Stockholm, Sweden) or its two subproducts, (1-3)IGF-I (Peninsula, Merseyside, England) and (4-70)IGF-I (Gropep, Adelaide, Australia). We also studied the effects of other peptides. The GnRH fragments and analogs included (1-5) GnRH (UCB, Brussels, Belgium), (2-10)GnRH (Sigma, St Louis, Mo., USA) and (1-9)GnRHa (D-TRP^6-PRO^9-N-Ethylamide GnRH) a GnRH agonist kindly provided by Dr J Rivier (The Salk Institute, California, USA). The bovine Proinsulin and its subproducts included the C-peptide of insulin and insulin itself (Novo-Nordisk, Copenhagen, Denmark). Finally, the GRF-related peptides included (1-43) rat GRP (Bachem, Bubendorf, Switzerland), (1-37) human GRF (Peninsula, Merseyside, England) and (1-29)human GRF (Kabi Pharmacia, Stockholm, Sweden). AP-5 (DL-2-amino-5-phosphonovaleric acid, Sigma), a selective antagonist at NMDA receptors and DNQX (6,7-dinitro-quinoxaline-2,3-dione, Tocris Neuramin, Buckhurst Hill, United Kingdom) a selective antagonist at kainate receptors, were also used. The different peptides or antagonists were used for 15 min, i.e. the 7.5-min fraction before and during exposure to veratridine. We also studied the effects of a single s.c. injection of IGF-I or its subproducts in 15 or 50 day-old rats. Then, the animals were sacrificed and the hypothalamic explants studied 25 min after the injection, this interval being required to obtain plasma concentrations of IGF-I sufficient to affect protein metabolism (A. Skottner, personal communication). At that time, the serum was collected for the assay of IGF-I using a method described elsewhere (15) and testosterone was measured as well using a standard RIA (Sorin Biomedica). The concentration of the studied substances resulting in 50% inhibition of the GnRH secretory response (IC50) was calculated as described earlier (3, 9) and the data were compared by covariance analysis. The occurrence of significant GnRH secretory pulses was determined using the pulsar program (2, 3).
The GnRH secretory response induced by the 7.5-min exposure to NMA (upper panel) or kainate (lower panel) was studied using explants of 50-day-old male rats. This study was performed in the presence of glutamic acid-terminating subproducts of different peptides and in the presence of AP-5 and DNQX which are respectively selective antagonists at NMDA and kainate receptors.

glutamate receptors = experiment: Displacement of tritiated glutamate from hypothalamic membrane preparations; format: binding; settings: FIG. 9
Text: Hypothalmic membrane preparations are used to study the displacement of tritiated glutamate binding in the presence of different compounds. Glutamate is able to displace the binding of the tracer at relatively low 10^−6 to 10^−8 concentrations. […] This is because the affinity of tritiated glutamate for the NMDA receptors is less than for the other subtypes of glutamate receptors.

[3] = 10^−10 to 10^−6 M, 50-day-old explants

With `NCC(=O)N1CCC[C@H]1C(=O)N[C@@H](CCC(=O)O)C(=O)O` [(1-3)IGF-I, gly-pro-glu] the “effect on veratridine-induced secretion of GnRH” value ([1]; in vitro, explants at 15, 25 and 50 days) was “dose-related inhibition”, the “inhibitory effect on GnRH secretion in the presence of peptidase inhibitors” value ([1]; three different peptidase inhibitors, FIG. 5) was “not prevented” and the “effect on secretion of GnRH induced by kainate” value (kainate receptors; [3]) was “does not change”. For the same molecule, the “GnRH secretion induced by kainate 5.10^−2 M” value (kainate receptors; (1-3)IGF-I 10^−6 M) was 95 % of controls, the “GnRH secretion induced by kainate 5.10^−2 M” value (kainate receptors; (1-3)IGF-I 10^−7 M) was 107 % of controls and the “GnRH secretion induced by kainate 5.10^−2 M” value (kainate receptors; (1-3)IGF-I 10^−8 M) was 114 % of controls. The “antagonism of glutamate receptor subtypes” value [2] was “could be antagonized”, the “effect on GnRH secretion induced by NMA” value (NMDA receptors; [3]) was “dose-related inhibition” and the “concentration required to suppress the NMA-induced secretion of GnRH” value (NMDA receptors; 50-day-old explants) was 10^−6 M. For the same molecule, the “GnRH secretion induced by NMA 5.10^−2 M” value (NMDA receptors; (1-3)IGF-I 10^−6 M) was 14 % of controls, the “GnRH secretion induced by NMA 5.10^−2 M” value (NMDA receptors; (1-3)IGF-I 10^−7 M) was 43 % of controls and the “GnRH secretion induced by NMA 5.10^−2 M” value (NMDA receptors; (1-3)IGF-I 10^−8 M) was 73 % of controls. For the same molecule, the “GnRH secretion induced by NMA 5.10^−2 M” value (NMDA receptors; (1-3)IGF-I 10^−10 M) was 93^b ± % of controls and the “displacement of tritiated glutamate binding” value (glutamate receptors) was “act as competitors of glutamate binding”.
